# Assay results: PubChem BioAssay AID220 (DTP/NCI, 2004)
# The list is a part of this screen's results and no random one: it is rich in T/C values a quarter to a half above the control, in often repeated tests (any T/C) and in doses without a T/C. Other doses and runs of a compound stand elsewhere. T/C: endpoint of the treated group in % of that of the vehicle group. Schedule codes are those of the source, read here as Q, the interval in days (D) or hours (H), X, the number of doses. Some T/C values carry the count of animals alive at the toxicity check (mostly the fifth day); without a count, all were alive then. Some doses have a count of surviving animals in place of a T/C: the source holds a T/C of zero for them, seemingly a mark for toxic or unscored doses. Counts of survivors are from the toxicity check (mostly the fifth day) where no day follows; animals may have died later. Some entries hold several experiments; the results are listed from low to high.
# Tested on: CD8F1 mice, subcutaneous mammary adenocarcinoma, T/C%
# Experiment: NCI In Vivo Anticancer Drug Screen. Data for tumor model Mammary Adenocarcinoma CD8F1 (subcutaneous) in CD8F1
# Conditions: higher T/C = larger tumour
# In short: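 Mice carrying transplanted tumors received test compound, and survival or tumor size was recorded. Each value is the treated-group measurement divided by the corresponding measurement in vehicle-dosed controls.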
structure (smiles),measurement,setting,value
CSc1ncc2ncn(C3OC(CO)C(O)C3O)c2n1 (configuration not stated),T/C,"T/C endpoint: median tumor weight change, dose: 125.0 mg/kg/injection, schedule: Q01DX001 (ip), vehicle: Klucel (hydroxypropylcellulose) (HPC), evaluated on day 31",132 % of control
same,survivor count,"T/C endpoint: median tumor weight change, dose: 2000.0 mg/kg/injection, schedule: Q01DX001 (ip), vehicle: Klucel (hydroxypropylcellulose) (HPC)",2 of 10 on day 31
CC(=O)[C@]1(O)Cc2c(O)c3c(c(O)c2[C@@H](OC2CC(N)C(O)C(C)O2)C1)C(=O)c1c(O)cccc1C3=O (some centres not stated),T/C,"T/C endpoint: median tumor weight (est.), dose: 0.13 mg/kg/injection, schedule: Q07DX005 (ip), vehicle: water, evaluated on day 30",126 % of control
same,T/C,"T/C endpoint: median tumor weight (est.), dose: 0.22 mg/kg/injection, schedule: Q07DX005 (ip), vehicle: water, evaluated on day 30",147 % of control
same,T/C,"T/C endpoint: median tumor weight (est.), dose: 0.36 mg/kg/injection, schedule: Q07DX005 (ip), vehicle: water, evaluated on day 30",138 % of control
CNC(=O)c1cccc2c(Nc3ccc(NS(C)(=O)=O)cc3OC)c3cccc(C)c3nc12,survivor count,"T/C endpoint: median tumor weight change, dose: 60.0 mg/kg/injection, schedule: Q01DX001 (ip), vehicle: water",6 of 10 on day 28
same,survivor count,"T/C endpoint: median tumor weight change, dose: 120.0 mg/kg/injection, schedule: Q01DX001 (ip), vehicle: other",0 of 10 on day 27
same,survivor count,"T/C endpoint: median tumor weight change, dose: 120.0 mg/kg/injection, schedule: Q01DX001 (ip), vehicle: water",0 of 10 on day 28 and 1 of 10 on day 28
same,survivor count,"T/C endpoint: median tumor weight change, dose: 125.0 mg/kg/injection, schedule: Q01DX001 (ip), vehicle: water",0 of 10 on day 31
same,survivor count,"T/C endpoint: median tumor weight change, dose: 250.0 mg/kg/injection, schedule: Q01DX001 (ip), vehicle: water",0 of 10 on day 31
same,survivor count,"T/C endpoint: median tumor weight change, dose: 500.0 mg/kg/injection, schedule: Q01DX001 (ip), vehicle: water",0 of 10 on day 31
same,survivor count,"T/C endpoint: median tumor weight change, dose: 1000.0 mg/kg/injection, schedule: Q01DX001 (ip), vehicle: water",0 of 10 on day 31
CC1=C(C)C(=O)O[C@@H]([C@](C)(O)[C@]2(O)CC[C@@]3(O)[C@@H]4C[C@H]5O[C@]56CC=CC(=O)[C@]6(C)[C@H]4CC[C@]23C)C1,T/C,"T/C endpoint: median tumor weight change, dose: 100.0 mg/kg/injection, schedule: Q01DX001 (ip), vehicle: saline, evaluated on day 32",145 % of control
same,survivor count,"T/C endpoint: median tumor weight change, dose: 800.0 mg/kg/injection, schedule: Q01DX001 (ip), vehicle: saline",3 of 10 on day 32
Cc1c2cc[n+](C)cc2c(C)c2c1[nH]c1ccc(O)cc12,survivor count,"T/C endpoint: median tumor weight change, dose: 5.0 mg/kg/injection, schedule: Q01DX001 (ip), vehicle: saline",3 of 10 on day 27
same,survivor count,"T/C endpoint: median tumor weight change, dose: 10.0 mg/kg/injection, schedule: Q01DX001 (ip), vehicle: saline",0 of 10 on day 27
COC1=CC(=O)N(C(=O)C2CSC(C(CO)NC(=O)c3csc(/C=N/O)n3)=N2)C1 (configuration not stated),T/C,"T/C endpoint: median tumor weight (est.), dose: 50.0 mg/kg/injection, schedule: Q07DX005 (ip), vehicle: Klucel (hydroxypropylcellulose) (HPC), evaluated on day 30",138 % of control
COc1cc2c(c(OC)c1OC)-c1ccc(OC)c(=O)cc1[C@@H](NC(=O)CCl)CC2,survivor count,"T/C endpoint: median tumor weight change, dose: 10.0 mg/kg/injection, schedule: Q01DX001 (ip), vehicle: saline with Tween-80",4 of 10 on day 29
same,survivor count,"T/C endpoint: median tumor weight change, dose: 20.0 mg/kg/injection, schedule: Q01DX001 (ip), vehicle: saline with Tween-80",3 of 10 on day 29
same,survivor count,"T/C endpoint: median tumor weight change, dose: 40.0 mg/kg/injection, schedule: Q01DX001 (ip), vehicle: saline with Tween-80",0 of 10 on day 29
OCCOCC(F)(F)F,T/C,"T/C endpoint: median tumor weight (est.), dose: 200.0 mg/kg/injection, schedule: Q07DX005 (ip), vehicle: saline with Tween-80, evaluated on day 30",129 % of control
CCCCCCCCCCCCSC1=C(Cl)C(=O)C(OC)=C(OC)C1=O,T/C,"T/C endpoint: median tumor weight (est.), dose: 12.5 mg/kg/injection, schedule: Q07DX005 (ip), vehicle: saline with Tween-80, evaluated on day 30",137 % of control
same,T/C,"T/C endpoint: median tumor weight (est.), dose: 50.0 mg/kg/injection, schedule: Q07DX005 (ip), vehicle: saline with Tween-80, evaluated on day 30",135 % of control [9 of 10 alive on day 30]
same,survivor count,"T/C endpoint: median tumor weight (est.), dose: 200.0 mg/kg/injection, schedule: Q07DX005 (ip), vehicle: saline with Tween-80",5 of 10 on day 30
same,survivor count,"T/C endpoint: median tumor weight (est.), dose: 400.0 mg/kg/injection, schedule: Q07DX005 (ip), vehicle: saline with Tween-80",2 of 10 on day 30
Cc1ccc(C2NC(=O)c3ccccc3N2)s1 (configuration not stated),T/C,"T/C endpoint: median tumor weight (est.), dose: 25.0 mg/kg/injection, schedule: Q07DX005 (ip), vehicle: Klucel (hydroxypropylcellulose) (HPC), evaluated on day 30",146 % of control
same,T/C,"T/C endpoint: median tumor weight (est.), dose: 50.0 mg/kg/injection, schedule: Q07DX005 (ip), vehicle: Klucel (hydroxypropylcellulose) (HPC), evaluated on day 34",135 % of control [8 of 10 alive]
